# Data published in the supplement of paper PMC8728848.
# Some of the results follow.
# B1: CcfD (Bacteroides fragilis), Q5L9G4 (protein)
# chain: MKKQNSIYTLLIALLCFVSSCDYLGVSDQLAGGLQNTEQVFDNVSYTKRWYANVFAGIPDYSGINSVNVGAFKNPWTGMCDELVVGYGNSSKYNNSDRNAANMGFHRYGDCYKYIRQANIFLQKAHPIMTTGTQGDQLLEDELTQMKANVRFMRAFYHYLLFEQYGPIILVKDKIYNATEDQDVPRNTVDEVIEYIDSELTAVASELTQEPIFEDKDYRAWPTKGVALAVRAKLWLYAASPLLNGGYREALSVTNPDGTRLFPDYDAGKWEKALAACKDFIDYAEAGRYELYKEYKDDNGAVIDPDKSVYNLFQKYTHEIIWATANNDWGGMNGDAFDRRIAPRCEKNGLGSTGVTQELVDAFYMKDGFPVSATAYLPQSTLYQEEGYGTYKDQNDNFSKKYTNVTVSNRYLNREPRFYNTVFFNGRQWPVSCNQVLFYNGGNSGVQEGQATLTGYMLFKRFNRSVSLTNPGVASQFRPSIIFRLADFYLMYAEAANEVNPNDARVLKYLNLVRERAGLPDIETLNPAIRGNQELQRAAIQRERQIELATEGQRYFDVRRWMIADKNGEGRQNGYVHGMNVRGESNDKEDFNRIVEASQIVFNRKMYLYPMPDSEMRKTKNLVQNPGW
# How the values were obtained:
# Test in all cases: glycan array binding signal (z-score within array); higher = stronger binding
# Conditions in all cases: glycan notation: IUPAC condensed, linker removed
# [1] = molecular target: Fuc(a1-2)Gal(b1-4)GlcNAc(b1-3)Gal(b1-4)GlcNAc(b1-2)Man(a1-3)[Fuc(a1-2)Gal(b1-4)GlcNAc(b1-3)Gal(b1-4)GlcNAc(b1-2)Man(a1-6)]Man(b1-4)GlcNAc(b1-4)GlcNAc
# Summary of the method: (§1)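 The binding signal is a Z-score computed within each array and averaged over linkers. Arrays of the same protein sequence at different concentrations or buffers were also averaged together. Data originate from 3228 arrays in the Consortium for Functional Glycomics database, kept only where the protein sequence was available.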
# [2] = molecular target: Fuc(a1-2)Gal(b1-4)GlcNAc(b1-3)Gal(b1-4)GlcNAc(b1-3)Gal(b1-4)GlcNAc
# Summary of the method: as §1
# [3] = molecular target: Fuc(a1-2)Gal(b1-4)GlcNAc(b1-3)GalNAc
# Summary of the method: as §1
# [4] = molecular target: Fuc(a1-2)Gal(b1-4)GlcNAc(b1-3)[Fuc(a1-2)Gal(b1-4)GlcNAc(b1-6)]GalNAc
# Summary of the method: as §1
# [5] = molecular target: Fuc(a1-2)Gal(b1-4)GlcNAc(b1-3)[Fuc(a1-3)[Gal(b1-4)]GlcNAc(b1-6)]Gal(b1-4)Glc
# Summary of the method: as §1
# [6] = molecular target: Fuc(a1-2)Gal(b1-4)GlcNAc(b1-6)GalNAc
# Summary of the method: as §1
# [7] = molecular target: Fuc(a1-2)Gal(b1-4)GlcNAc6S
# Summary of the method: as §1
# [8] = molecular target: Fuc(a1-2)Gal(b1-4)[Fuc(a1-3)]GlcNAc
# Summary of the method: as §1
# [9] = molecular target: Fuc(a1-2)Gal(b1-4)[Fuc(a1-3)]GlcNAc(b1-2)Man(a1-3)[Fuc(a1-2)Gal(b1-4)[Fuc(a1-3)]GlcNAc(b1-2)Man(a1-6)]Man(b1-4)GlcNAc(b1-4)[Fuc(a1-6)]GlcNAc
# Summary of the method: as §1
# [10] = molecular target: Fuc(a1-2)Gal(b1-4)[Fuc(a1-3)]GlcNAc(b1-2)[Fuc(a1-2)Gal(b1-4)[Fuc(a1-3)]GlcNAc(b1-4)]Man(a1-3)[Fuc(a1-2)Gal(b1-4)[Fuc(a1-3)]GlcNAc(b1-2)Man(a1-6)]Man(b1-4)GlcNAc(b1-4)GlcNAc
# Summary of the method: as §1
# [11] = molecular target: Fuc(a1-2)Gal(b1-4)[Fuc(a1-3)]GlcNAc(b1-3)Gal(b1-4)[Fuc(a1-3)]GlcNAc
# Summary of the method: as §1
# [12] = molecular target: Fuc(a1-2)Gal(b1-4)[Fuc(a1-3)]GlcNAc(b1-3)Gal(b1-4)[Fuc(a1-3)]GlcNAc(b1-3)Gal(b1-4)[Fuc(a1-3)]GlcNAc
# Summary of the method: as §1
# [13] = molecular target: Fuc(a1-2)Gal(b1-4)[Fuc(a1-3)]GlcNAc(b1-3)GalNAc
# Summary of the method: as §1
# [14] = molecular target: Fuc(a1-2)Gal(b1-4)[Fuc(a1-3)]GlcNAc(b1-3)[Neu5Ac(a2-6)Gal(b1-4)GlcNAc(b1-6)]Gal(b1-4)Glc
# Summary of the method: as §1
# [15] = molecular target: Fuc(a1-2)Gal3S(b1-4)GlcNAc
# Summary of the method: as §1
# [16] = molecular target: Fuc(a1-2)Gal6S(b1-3)GlcNAc
# Summary of the method: as §1
# [17] = molecular target: Fuc(a1-2)Gal6S(b1-3)GlcNAc6S
# Summary of the method: as §1
# Fuc(a1-2)Gal6S(b1-4)Glc = molecular target: Fuc(a1-2)Gal6S(b1-4)Glc
# Summary of the method: as §1
# [18] = molecular target: Fuc(a1-2)Gal6S(b1-4)Glc6S
# Summary of the method: as §1
# Fuc(a1-2)[Gal(a1-3)]Gal = molecular target: Fuc(a1-2)[Gal(a1-3)]Gal
# Summary of the method: as §1
# [19] = molecular target: Fuc(a1-2)[Gal(a1-3)]Gal(b1-3)GalNAc
# Summary of the method: as §1
# [20] = molecular target: Fuc(a1-2)[Gal(a1-3)]Gal(b1-3)GalNAc(b1-3)Gal(a1-4)Gal(b1-4)Glc
# Summary of the method: as §1
# [21] = molecular target: Fuc(a1-2)[Gal(a1-3)]Gal(b1-3)GlcNAc
# Summary of the method: as §1
# [22] = molecular target: Fuc(a1-2)[Gal(a1-3)]Gal(b1-3)GlcNAc(b1-2)Man(a1-3)[Fuc(a1-2)[Gal(a1-3)]Gal(b1-3)GlcNAc(b1-2)Man(a1-6)]Man(b1-4)GlcNAc(b1-4)GlcNAc
# Summary of the method: as §1
# [23] = molecular target: Fuc(a1-2)[Gal(a1-3)]Gal(b1-3)GlcNAc(b1-2)Man(a1-3)[Fuc(a1-2)[Gal(a1-3)]Gal(b1-3)GlcNAc(b1-2)Man(a1-6)]Man(b1-4)GlcNAc(b1-4)[Fuc(a1-6)]GlcNAc
# Summary of the method: as §1
# [24] = molecular target: Fuc(a1-2)[Gal(a1-3)]Gal(b1-3)GlcNAc(b1-3)GalNAc
# Summary of the method: as §1
# [25] = molecular target: Fuc(a1-2)[Gal(a1-3)]Gal(b1-3)GlcNAc(b1-6)GalNAc
# Summary of the method: as §1
# [26] = molecular target: Fuc(a1-2)[Gal(a1-3)]Gal(b1-4)Glc
# Summary of the method: as §1
# [27] = molecular target: Fuc(a1-2)[Gal(a1-3)]Gal(b1-4)GlcNAc
# Summary of the method: as §1
# [28] = molecular target: Fuc(a1-2)[Gal(a1-3)]Gal(b1-4)GlcNAc(b1-2)Man
# Summary of the method: as §1
binder,measurement,setting,value
B1,glycan array binding signal (z-score),[1],1.63
same,glycan array binding signal (z-score),[2],0.634
same,glycan array binding signal (z-score),[3],-1.03
same,glycan array binding signal (z-score),[4],-0.732
same,glycan array binding signal (z-score),[5],0.673
same,glycan array binding signal (z-score),[6],0.942
same,glycan array binding signal (z-score),[7],1.37
same,glycan array binding signal (z-score),[8],0.322
same,glycan array binding signal (z-score),[9],-0.082
same,glycan array binding signal (z-score),[10],3.75
same,glycan array binding signal (z-score),[11],0.22
same,glycan array binding signal (z-score),[12],-0.667
same,glycan array binding signal (z-score),[13],-0.778
same,glycan array binding signal (z-score),[14],-0.864
same,glycan array binding signal (z-score),[15],-0.22
same,glycan array binding signal (z-score),[16],0.752
same,glycan array binding signal (z-score),[17],-0.076
same,glycan array binding signal (z-score),Fuc(a1-2)Gal6S(b1-4)Glc,-0.824
same,glycan array binding signal (z-score),[18],-0.956
same,glycan array binding signal (z-score),Fuc(a1-2)[Gal(a1-3)]Gal,-0.653
same,glycan array binding signal (z-score),[19],-0.519
same,glycan array binding signal (z-score),[20],0.312
same,glycan array binding signal (z-score),[21],-0.384
same,glycan array binding signal (z-score),[22],2.68
same,glycan array binding signal (z-score),[23],0.2
same,glycan array binding signal (z-score),[24],0.095
same,glycan array binding signal (z-score),[25],-1.05
same,glycan array binding signal (z-score),[26],-0.489
same,glycan array binding signal (z-score),[27],0.056
same,glycan array binding signal (z-score),[28],0.64

# 2 records picked at random from those above:
binder,measurement,setting,value
B1,glycan array binding signal (z-score),[7],1.37
same,glycan array binding signal (z-score),[9],-0.082
